Paper PMC4964570
These are yes or no findings as the source states them, for the method shown. Binding seen in cells or lysates may run through a third protein. Some entries that bind do so weakly or less than the wild type.

By UniProt entry, the sequences of proteins in these tests, tags left out.
UniProt Q8K371: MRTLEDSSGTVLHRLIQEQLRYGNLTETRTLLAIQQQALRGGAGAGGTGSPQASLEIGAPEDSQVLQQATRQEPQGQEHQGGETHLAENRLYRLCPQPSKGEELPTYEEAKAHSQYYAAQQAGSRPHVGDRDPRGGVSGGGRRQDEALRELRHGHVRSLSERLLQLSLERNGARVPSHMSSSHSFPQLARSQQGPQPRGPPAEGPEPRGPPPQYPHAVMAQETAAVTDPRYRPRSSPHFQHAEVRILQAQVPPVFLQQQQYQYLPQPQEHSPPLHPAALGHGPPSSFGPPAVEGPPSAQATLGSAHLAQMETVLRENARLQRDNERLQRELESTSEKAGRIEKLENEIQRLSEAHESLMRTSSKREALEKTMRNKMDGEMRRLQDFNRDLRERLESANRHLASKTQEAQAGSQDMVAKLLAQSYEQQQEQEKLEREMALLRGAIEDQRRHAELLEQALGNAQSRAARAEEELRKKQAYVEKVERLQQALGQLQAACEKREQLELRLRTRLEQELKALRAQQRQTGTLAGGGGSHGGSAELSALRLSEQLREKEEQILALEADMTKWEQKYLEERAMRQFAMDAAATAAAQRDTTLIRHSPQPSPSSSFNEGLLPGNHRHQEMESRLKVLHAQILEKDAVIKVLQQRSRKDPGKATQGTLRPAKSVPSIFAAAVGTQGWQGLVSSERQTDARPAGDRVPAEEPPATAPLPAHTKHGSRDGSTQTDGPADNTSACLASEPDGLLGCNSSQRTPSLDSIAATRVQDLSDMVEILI

Tests used:
[1] = molecular target: AmotL2, endogenous in MS-1 mouse endothelial cells (mouse (endogenous in MS-1)) (UniProt Q8K371); assay: co-IP; MS-1 cell lysate (50 mM Tris-HCl pH 7.6, 150 mM NaCl, 1 mM EDTA, 1% Nonidet P40); immunoprecipitation with antibodies against Amot, AmotL1 and AmotL2, protein G sepharose, 4 °C; western blot
[2] = molecular target: T1, Angiomotin (Amot), endogenous in MS-1 mouse endothelial cells (mouse (endogenous in MS-1)) (UniProt Q8VHG2); assay: as above
T1 sequence: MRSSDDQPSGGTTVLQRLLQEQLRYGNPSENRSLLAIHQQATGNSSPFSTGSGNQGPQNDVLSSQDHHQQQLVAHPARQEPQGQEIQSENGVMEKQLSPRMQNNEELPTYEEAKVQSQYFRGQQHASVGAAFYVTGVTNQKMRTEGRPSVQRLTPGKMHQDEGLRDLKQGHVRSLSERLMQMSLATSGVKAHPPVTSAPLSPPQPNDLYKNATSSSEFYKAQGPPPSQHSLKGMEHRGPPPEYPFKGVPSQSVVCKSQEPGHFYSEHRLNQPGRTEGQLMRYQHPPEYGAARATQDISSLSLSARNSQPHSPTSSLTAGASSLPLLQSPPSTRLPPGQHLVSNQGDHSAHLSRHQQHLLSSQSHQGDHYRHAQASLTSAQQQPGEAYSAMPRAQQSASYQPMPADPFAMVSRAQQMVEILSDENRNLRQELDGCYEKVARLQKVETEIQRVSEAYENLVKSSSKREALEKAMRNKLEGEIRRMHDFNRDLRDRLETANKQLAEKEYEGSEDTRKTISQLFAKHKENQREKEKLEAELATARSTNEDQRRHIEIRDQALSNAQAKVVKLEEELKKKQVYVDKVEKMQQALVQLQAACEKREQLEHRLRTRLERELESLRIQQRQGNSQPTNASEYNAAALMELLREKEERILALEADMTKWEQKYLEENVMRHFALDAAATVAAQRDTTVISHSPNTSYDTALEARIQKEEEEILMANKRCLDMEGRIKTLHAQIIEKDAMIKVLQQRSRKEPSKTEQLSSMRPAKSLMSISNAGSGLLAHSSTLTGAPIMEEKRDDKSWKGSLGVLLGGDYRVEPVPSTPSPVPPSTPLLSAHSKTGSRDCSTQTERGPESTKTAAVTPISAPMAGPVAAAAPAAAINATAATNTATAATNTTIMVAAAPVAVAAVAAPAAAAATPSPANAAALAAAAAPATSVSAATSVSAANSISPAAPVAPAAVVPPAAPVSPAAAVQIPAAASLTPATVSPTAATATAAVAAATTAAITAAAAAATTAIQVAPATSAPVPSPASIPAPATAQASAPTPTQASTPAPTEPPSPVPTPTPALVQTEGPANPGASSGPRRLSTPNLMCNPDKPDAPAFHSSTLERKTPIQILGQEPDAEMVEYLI

B1: VE-cadherin, endogenous in MS-1 mouse endothelial cells (protein, UniProt P55284 46-784)
chain: DWIWNQMHIDEEKNESLPHYVGKIKSNVNRQNAKYVLQGEFAGKIFGVDANTGNVLAYERLDREKVSEYFLTALIVDKNTNKNLEQPSSFTVKVHDINDNWPVFSHQVFNASVPEMSAIGTSVIRVTAVDADDPTVAGHATVLYQIVKGNEYFSIDNSGLIFTKIKNLDREKQAEYKIVVETQDALGLRGESGTATVMIRLEDINDNFPVFTQSTYTFSVPEDIRVGKPLGFLTVVDPDEPQNRMTKYSIMQGEYRDTFTIETDPKRNEGIIKPTKSLDYEVIQQYTFYIEATDPTIRYEYLSSTSGKNKAMVTINVLDVDEPPVFQRHFYHFKLPENQKKPLIGTVVAKDPDKAQRSIGYSIRKTSDRGQFFRITKQGNIYNEKELDRETYAWYNLTVEANELDSRGNPVGKESIVQVYIEVLDENDNPPEFAQPYEPKVCENAAQGKLVVQISATDKDVVPVNPKFKFALKNEDSNFTLINNHDNTANITVKYGQFNREHAKFHYLPVLISDNGVPSLTGTSTLTVGVCKCNEQGEFTFCEEMAAQAGVSIQALVAIFLCILTITVITLLIILRRRIRKQAHAHSKSALEIHEQLVTYDEEGGGEMDTTSYDVSVLNSVRGGSTKPLRSTMDARPAVYTQVQKPPRLAPGLHGGPREMATMIDVKKEEADNDGGGPPYDTLHIYGYEGAESIAESLSSLSTNSSDSDIDYDFLNDWGPRFKMLAELYGSDPQEELII
[1]
  binding: binds
[2]
  binding: binds weakly
